Data as given in PubChem BioAssay AID602196 (INSERM, 2012).
Purpose: 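Knock-downs that protect lung cancer cells from cisplatin or sensitise them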. System: human A549 lung cancer cells. Reagents: siRNA pair against human genes. Duration: 48 h transfection before cisplatin; time from cisplatin to read-out not stated. Challenge: cisplatin at a dose killing half of control-siRNA cells; exact dose and duration not given. Measurement: 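Shift in cisplatin death relative to control siRNA, from -50 (all cells die) to +50 (no cells die); siRNAs harmful on their own scored 0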. Direction: two-siRNA summed score (-2 to +2): higher = both siRNAs protect from cisplatin killing; -2 means both sensitise; mean protection from cisplatin (shift in death): higher = protection from cisplatin killing. Call rule: 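siRNAs harmful alone (LDH or WST-1) get 0; others get +1 for less and -1 for more cisplatin killing; genes are active when the two siRNAs give the same sign, summing to ±2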. Calls: active = both siRNAs shift cisplatin killing the same way; inactive = no consistent shift, or siRNA harmful alone.
Shown is one part, drawn at random, of about 23,000 deposited reagents. Of all reagents, 455 (2%) are marked active. 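Active includes both protection and sensitisation; some change values fall well beyond the stated -50 to +50 range.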 Further read-outs or replicates are left out here. Not given: the amount of reagent.

no.	gene knocked down	two-siRNA summed score (-2 to +2)	mean protection from cisplatin (shift in death) (%)	call
1	SDF4	1	19.6	inactive
2	GDF7	0	6.2	inactive
3	TNK1	0	0.4	inactive
4	H3-4	0	2.8	inactive
5	ZNF597	0	-5	inactive
6	LOC389398	1	18.8	inactive
7	POLR3C	0	1.6	inactive
8	FLJ37307	0	8.3	inactive
9	FHIP2A	0	-1.8	inactive
10	ARMC7	0	0.9	inactive
11	GATAD2B	1	15.8	inactive
12	TNFRSF14	0	-11.4	inactive
13	ARHGEF7	0	13.7	inactive
14	SOD1	0	3.7	inactive
15	RSAD2	0	-6.6	inactive
16	CREB5	1	12.9	inactive
17	ZBTB10	0	-0.4	inactive
18	CNTN5	0	2.6	inactive
19	LOC440252	0	13	inactive
20	KIF22	-1	-9.1	inactive
21	SCRN2	1	11.8	inactive
22	ZNF669	1	6.6	inactive
23	LOC203510	2	24.2	active
24	EHHADH	1	9.5	inactive
25	CCDC88B	0	17.6	inactive
26	SMC2	0	-3.1	inactive
27	VTI1BP2	0	5	inactive
28	APOBEC3A	2	16.5	active
29	FZD8	0	9.4	inactive
30	CATSPERG	0	-1.7	inactive
31	LOC442119	0	4.7	inactive
32	LOC388563	0	8	inactive
33	HSF2	0	-8.3	inactive
34	LOC440494	0	-3.1	inactive
35	SCAND2P	0	0.9	inactive
36	LOC440150	0	1.7	inactive
37	LOC440790	0	-0.3	inactive
38	APC2	-1	1.5	inactive
39	UFL1	1	10.8	inactive
40	LOC441909	0	12.9	inactive
41	RPL28	1	16.6	inactive
42	EID1	0	4.2	inactive
43	SDHC	0	4.2	inactive
44	LOC401577	0	6.2	inactive
45	GAS6	0	8	inactive
46	KLF15	0	-2.1	inactive
47	SLC7A6	0	-8.6	inactive
48	MTARC2	0	-0.7	inactive
49	MCM5	1	5.6	inactive
50	AGTR1	1	8.7	inactive
51	FLJ45684 (retired record)	0	13	inactive
52	MED1	0	-17.1	inactive
53	LOC390688	0	9.9	inactive
54	TMEM9	0	1.8	inactive
55	IP6K1	-1	-5	inactive
56	VIPAS39	0	11.6	inactive
57	LOC441845	0	7	inactive
58	CYBA	0	1.4	inactive
59	DVL2	0	-8.1	inactive
60	PHF23	0	10.1	inactive
61	KRT24	0	-7.4	inactive
62	CDK2AP1	0	1.6	inactive
63	MRPL32	0	-9.2	inactive
64	DKFZp564C0469	0	1.4	inactive
65	LOC342931	0	3.7	inactive
66	CD40LG	0	-3	inactive
67	LCN6	0	4	inactive
68	SRSF9	0	-7.4	inactive
69	CNDP2	0	-5.2	inactive
70	DCK	-1	7.2	inactive
71	LOC284293	0	-4.8	inactive
72	PCDHB2	0	9.9	inactive
73	ABCG8	1	7.9	inactive

Part of the list above, reformatted:
FZD8
- two-siRNA summed score (-2 to +2): 0
- mean protection from cisplatin (shift in death) (%): 9.4
- call: inactive

CATSPERG
- two-siRNA summed score (-2 to +2): 0
- mean protection from cisplatin (shift in death) (%): -1.7
- call: inactive

LOC442119
- two-siRNA summed score (-2 to +2): 0
- mean protection from cisplatin (shift in death) (%): 4.7
- call: inactive

LOC388563
- two-siRNA summed score (-2 to +2): 0
- mean protection from cisplatin (shift in death) (%): 8
- call: inactive
